Experimental data from patent publication US20250171559A1.
These are yes or no findings as the source states them, for the method shown. Some binding calls cover weakened binding; strength is not graded here.

By UniProt entry, the sequences of proteins in these tests, tags left out. Residues count along the entry.
UniProt Q8N423, residues 22-460: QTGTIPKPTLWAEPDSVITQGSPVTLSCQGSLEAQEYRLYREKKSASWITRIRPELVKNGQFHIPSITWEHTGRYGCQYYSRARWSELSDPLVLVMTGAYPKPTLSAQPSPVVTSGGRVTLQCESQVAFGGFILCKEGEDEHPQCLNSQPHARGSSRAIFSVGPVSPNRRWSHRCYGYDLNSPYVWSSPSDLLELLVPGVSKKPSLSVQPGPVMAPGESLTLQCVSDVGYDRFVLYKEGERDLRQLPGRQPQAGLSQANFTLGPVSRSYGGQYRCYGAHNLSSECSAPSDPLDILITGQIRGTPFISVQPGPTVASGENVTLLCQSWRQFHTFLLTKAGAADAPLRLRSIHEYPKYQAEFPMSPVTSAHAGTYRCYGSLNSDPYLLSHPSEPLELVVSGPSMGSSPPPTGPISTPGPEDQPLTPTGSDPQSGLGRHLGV
UniProt Q8NHL6, residues 24-458: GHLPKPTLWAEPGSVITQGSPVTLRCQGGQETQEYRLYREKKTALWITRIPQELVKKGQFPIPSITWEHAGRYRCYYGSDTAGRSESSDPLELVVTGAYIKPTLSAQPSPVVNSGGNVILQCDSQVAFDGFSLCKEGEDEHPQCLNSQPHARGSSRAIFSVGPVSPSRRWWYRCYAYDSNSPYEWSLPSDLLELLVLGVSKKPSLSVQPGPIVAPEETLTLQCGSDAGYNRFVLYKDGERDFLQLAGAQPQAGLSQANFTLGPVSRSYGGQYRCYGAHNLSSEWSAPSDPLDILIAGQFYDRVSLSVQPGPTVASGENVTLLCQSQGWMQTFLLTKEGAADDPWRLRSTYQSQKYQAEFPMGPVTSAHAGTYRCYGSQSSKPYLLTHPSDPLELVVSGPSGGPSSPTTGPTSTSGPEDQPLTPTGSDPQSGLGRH

Assays:
LILRB2 = LILRB2 (UniProt Q8N423); assay: SPR
LILRB1 = LILRB1 (UniProt Q8NHL6); assay: SPR

| Binder | binding (LILRB2) | binding (LILRB1) |
| --- | --- | --- |
| mini-WRS (enzyme) MSYKAAAGEDYKADCPPGNPAPTSNHGPDATEAEEDFVDPWTVQTSSAKGIDYDKLIVRFGSSKIDKELINRIERATGQRPHHFLRRGIFFSHRDMNQVLDAYENKKPFYLYTGRGPSSEAMHVGHLIPFIFTKWLQDVFNVPLVIQMTDDEKYLWKDLTLDQAYSYAVENAKDIIACGFDINKTFIFSDLDYMGMSSGFYKNVVKIQKHVTFNQVKGIFGFTDSDCIGKISFPAIQAAPSFSNSFPQIFRDRTDIQCLIPCVIDQDPYFRMTRDVAPRIGYPKPALLHSTFFPALQGAQTKMSASDPNSSIFLTDTAKQIKTKVNKHAFSGGRDTIEEHRQFGGNCDVDVSFMYLTFFLEDDDKLEQIRKDYTSGAMLTGELKKALIEVLLPLIAEHQARRKEVTDEIVKEFMTPRKLSFDFQ | binds | binds |
| full-length tryptophanyl-tRNA synthetase (WRS) (enzyme) MPNSEPASLLELFNSIATQGELVRSLKAGNASKDEIDSAVKMLVSLKMSYKAAAGEDYKADCPPGNPAPTSNHGPDATEAEEDFVDPWTVQTSSAKGIDYDKLIVRFGSSKIDKELINRIERATGQRPHHFLRRGIFFSHRDMNQVLDAYENKKPFYLYTGRGPSSEAMHVGHLIPFIFTKWLQDVFNVPLVIQMTDDEKYLWKDLTLDQAYSYAVENAKDIIACGFDINKTFIFSDLDYMGMSSGFYKNVVKIQKHVTFNQVKGIFGFTDSDCIGKISFPAIQAAPSFSNSFPQIFRDRTDIQCLIPCVIDQDPYFRMTRDVAPRIGYPKPALLHSTFFPALQGAQTKMSASDPNSSIFLTDTAKQIKTKVNKHAFSGGRDTIEEHRQFGGNCDVDVSFMYLTFFLEDDDKLEQIRKDYTSGAMLTGELKKALIEVLLPLIAEHQARRKEVTDEIVKEFMTPRKLSFDFQ | binds | binds |
